31 compounds from the supplement of paper PMC12889115 can be followed below.

Some of the results follow. Values are raw readings; no control value is given beside them.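 In the initial screen, polymyxin B was used at a concentration that permeabilizes Salmonella's outer membrane but not its inner membrane. Maximum growth was set by DMSO wells with or without polymyxin B. Since plates varied, data were ranked per plate, and compounds giving the lowest OD600 advanced as hits.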

The experiment concerns Salmonella enterica serovar Typhimurium SL1344. As to the kind of experiment: bacterial growth OD600 after 18 h with compound and polymyxin B; higher = more bacterial growth (less inhibition). The conditions noted are these: 50 µM, Mueller-Hinton broth.

For `O=C(Nc1ccc(-c2cccc(F)c2)cc1)C1CCCN(C(=O)Cc2ccccn2)C1` (stereo unspecified), the “bacterial growth OD600” value (polymyxin B 0.75 µg/mL) was 0.001.
For the compound `CCOC(=O)C1(Cc2ccccc2C)CCCN(C(=O)CCn2nccc2C)C1` (stereo unspecified), where the note is “polymyxin B 1 µg/mL”, the “bacterial growth OD600” value was 0.645.
With `Cc1cnc(C)c(-c2ccc3c(c2)CC(CNC(=O)C2(c4ccc(Cl)cc4)CCC2)O3)n1` (stereo unspecified), under “polymyxin B 0.75 µg/mL”, the “bacterial growth OD600” value is 0.862.
On to `COc1ccc(-c2ccccc2NC(=O)C2CCCN(CCC(C)C)C2)cc1` (stereo unspecified), for which, where the note is “polymyxin B 1 µg/mL”, the “bacterial growth OD600” value stood at 0.909.
With `CN(Cc1cnn(C)c1)C(=O)CC(c1cccc(O)c1)c1cccc(Cl)c1` (stereo unspecified), the “bacterial growth OD600” value (polymyxin B 0.75 µg/mL) is 0.82.
In the case of `COc1ccc(C2c3[nH]c4ccccc4c3CCN2Cc2cc[nH]n2)c(F)c1` (stereo unspecified), the “bacterial growth OD600” value (polymyxin B 1 µg/mL) turned out to be 0.814.
As to `Oc1cc(-c2cccc(Cl)c2)cc2c1OCCN(Cc1ccccc1)C2`, for the setting “polymyxin B 0.75 µg/mL”, the “bacterial growth OD600” value came out at 0.108.
Regarding `O=C(c1cscn1)N1CCC(C2CCN(c3ncccn3)CC2)C1` (stereo unspecified), the “bacterial growth OD600” value (polymyxin B 0.75 µg/mL) is 0.788.
As for `Fc1ccc(Cc2noc(-c3ccc(N4CCCOCC4)nc3)n2)cc1`, the “bacterial growth OD600” value (polymyxin B 0.75 µg/mL) is 0.187.
Turning to `Cc1c(CN2CCC(C3CCN(Cc4cccnc4)CC3)C2)cnn1C` (stereo unspecified), the “bacterial growth OD600” value (polymyxin B 1 µg/mL) amounted to 1.
The same measure, in the same setting: next, `COc1ccc(CN(C)CC(C)C)cc1OCC(O)CN1CCN(C)CC1` (stereo unspecified): 0.979.
In the case of `CN1C(=O)CC(CC(=O)N2CCC(c3ccncc3)CC2)(c2ccc(-c3ccccc3)cc2)C1=O` (stereo unspecified), the “bacterial growth OD600” value (polymyxin B 0.75 µg/mL) was found to be 0.007.
With `O=C1CC(NC2CCSCC2)CN1Cc1ccccc1C(F)(F)F` (stereo unspecified), the “bacterial growth OD600” value (polymyxin B 1 µg/mL) was 0.96.
For `O=C(CN1CCOC1=O)N1CCCC(N2CCN(Cc3ccc4c(c3)OCO4)CC2)C1` (stereo unspecified), the “bacterial growth OD600” value (polymyxin B 1 µg/mL) turned out to be 0.954.
For `CSCCC(=O)N1CCc2onc(-c3ccc(Cl)cc3)c2C1`, the “bacterial growth OD600” value (polymyxin B 0.75 µg/mL) was 0.492.
Still for that read-out and setting: next, `COc1ccc(CNC(=O)c2cnn(-c3nccc(-c4ccccc4OC)n3)c2C2CC2)c(OC)c1`: 0.69.
For the compound `CC(=O)N1CCC(N2CCCC(CCc3ccccc3C(F)(F)F)C2)CC1` (stereo unspecified), the “bacterial growth OD600” value (polymyxin B 0.75 µg/mL) came out at 0.722.
As for `CCOC(=O)C1(Cc2ccc(OC)cc2)CCN(C(=O)CCc2ccccc2OC)CC1`, the “bacterial growth OD600” value (polymyxin B 1 µg/mL) is 0.011.
`COc1ccc(C(CC(=O)N(C)Cc2c(C)n[nH]c2C)c2ccccc2)cc1` (stereo unspecified): where the note is “polymyxin B 1 µg/mL”, the “bacterial growth OD600” value was found to be 0.661.
Consider `COc1ccccc1CN1CCC2(CC1)c1ccccc1[C@@H](NC(=O)Cc1cccs1)[C@@H]2OC`, for which the “bacterial growth OD600” value (polymyxin B 0.75 µg/mL) was determined as 0.846.
The same measure, in the same setting: next, `CCN(CC)CC(O)COc1ccc(CN(C)Cc2ccccn2)cc1OC` (stereo unspecified): 0.808; `COc1cccc(CCC(=O)NCC2Cc3cc(-c4ccnc(SC)n4)cc(Cl)c3O2)c1` (stereo unspecified): 0.912; `Cc1ncc2c(c1CNC(=O)c1ccccc1F)CCN(C(=O)Cc1c(F)ccc(F)c1F)C2`: 0.857.
For `COc1ccc(C(=O)NC2CCCN(C3CCCCCC3)C2)cc1F` (stereo unspecified), the “bacterial growth OD600” value (polymyxin B 1 µg/mL) amounted to 0.908.
Same read-out and setting: next, `COc1ccc(CN2CCNC(=O)C2CC(=O)N2CCCCC2)c(C)c1C` (stereo unspecified): 0.955.
Still for that read-out and setting: next, `Cc1cc(-c2nn(-c3ccccc3F)cc2CN(C)C2CCOCC2)c(C)s1`: 0.81.
Turning to `COc1ccc(CCNC2CCN(c3ccc(C(=O)NC(C)c4ccccc4)cc3)CC2)cc1` (stereo unspecified), for the setting “polymyxin B 0.75 µg/mL”, the “bacterial growth OD600” value was 0.81.
On to `NC(=O)CNC(=O)c1ccc2oc(CCCc3ccccc3)nc2c1`, for which, where the note is “polymyxin B 1 µg/mL”, the “bacterial growth OD600” value was 0.958.
With `CCCCN(C)C(=O)C1CCCN(C2CCN(c3nc4ccccc4o3)CC2)C1` (stereo unspecified), under “polymyxin B 0.75 µg/mL”, the “bacterial growth OD600” value is 0.767.
Still for that read-out and setting: next, `COCCN1C(=O)CC(CC(=O)N2CC3CCCC2C3)(c2ccccc2OC)C1=O` (stereo unspecified): 0.804; `COCCCN1C(=O)CC(CC(=O)N2CCCC(c3ccccc3)C2)(c2ccccc2OC)C1=O` (stereo unspecified): 0.056.
